Test results: paper doi:10.1101/2023.08.13.552748
Results are given in words; binding and its absence hold for the method and conditions named. Some binding calls cover weakened binding; strength is not graded here.

Experiments:
Assay in all cases: cryo-EM structure
Details in all cases: remark: other sources report otherwise
[1] = molecular target: T1, full length rat mGluR3 (metabotropic glutamate receptor 3) (rat), P31422
[2] = molecular target: T1, full length rat mGluR3 (metabotropic …); remark: listed apart in the source
[3] = molecular target: T1, full length rat mGluR3 (metabotropic …); remark: listed apart in the source
[4] = molecular target: T1, full length rat mGluR3 (metabotropic …); remark: listed apart in the source

binding [1]: binds | binding [2]: binds | binding [3]: binds | binding [4]: binds
B1: full length rat mGluR3 (metabotropic glutamate receptor 3), P31422 23-879 (receptor)
chain: LGDHNFMRREIKIEGDLVLGGLFPINEKGTGTEECGRINEDRGIQRLEAMLFAIDEINKDNYLLPGVKLGVHILDTCSRDTYALEQSLEFVRASLTKVDEAEYMCPDGSYAIQENIPLLIAGVIGGSYSSVSIQVANLLRLFQIPQISYASTSAKLSDKSRYDYFARTVPPDFYQAKAMAEILRFFNWTYVSTVASEGDYGETGIEAFEQEARLRNICIATAEKVGRSNIRKSYDSVIRELLQKPNARVVVLFMRSDDSRELIAAANRVNASFTWVASDGWGAQESIVKGSEHVAYGAITLELASHPVRQFDRYFQSLNPYNNHRNPWFRDFWEQKFQCSLQNKRNHRQVCDKHLAIDSSNYEQESKIMFVVNAVYAMAHALHKMQRTLCPNTTKLCDAMKILDGKKLYKEYLLKINFTAPFNPNKGADSIVKFDTFGDGMGRYNVFNLQQTGGKYSYLKVGHWAETLSLDVDSIHWSRNSVPTSQCSDPCAPNEMKNMQPGDVCCWICIPCEPYEYLVDEFTCMDCGPGQWPTADLSGCYNLPEDYIKWEDAWAIGPVTIACLGFLCTCIVITVFIKHNNTPLVKASGRELCYILLFGVSLSYCMTFFFIAKPSPVICALRRLGLGTSFAICYSALLTKTNCIARIFDGVKNGAQRPKFISPSSQVFICLGLILVQIVMVSVWLILETPGTRRYTLPEKRETVILKCNVKDSSMLISLTYDVVLVILCTVYAFKTRKCPENFNEAKFIGFTMYTTCIIWLAFLPIFYVTSSDYRVQTTTMCISVSLSGFVVLGCLFAPKVHIVLFQPQKNVVTHRLHLNRFSVSGTATTYSQSSASTYVPTVCNGREVLDSTTSSL
